Assay results from PubChem BioAssay AID493014 (National Center for Advancing Translational Sciences (NCATS), 2011).
About 170 (0.05%) of roughly 340,000 compounds were called active. The inconclusive results got no clear call from the source; some entries with a clear call stand among them for comparison. Calls follow the shape of the dose curve; as a rule, active = well fitted inhibition curve with a large enough effect in the signal ratio, with a control signal flat (not every such curve was filed as active); inconclusive = small, poorly fitted or top-dose-only effect, or effect the other way, or a change in a side signal; inactive = flat fitted curve, though single readings scatter; the % refers to the signal ratio. Where the call is inconclusive, the potency comes from a doubtful curve fit.

Experiment: qHTS Assay to Find Inhibitors of Chronic Active B-Cell Receptor Signaling;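 as to activity change, negative = inhibition: plate controls were basal doxycycline-induced cells for no effect and cells given 10 µM MG132 for full effect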
Details: ABC-DLBCL IkBa-CBG/CBR reporter, luminescence ratio (green luciferase fused to IkBa over red control in TMD8 lymphoma cells), 4 h; activity change, negative = inhibition: at 46.1 µM (top of the series)
Outline: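 TMD8 human ABC-DLBCL cells with doxycycline-inducible IκBα–green luciferase fusion and unfused red luciferase, in 0.5% FBS medium; compounds up to 46 uM, 4 h at 37C. Green/red luminescence ratio, filter-overlap corrected, fitted to concentration-response curves.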
Potency is read from the fitted curve at half-maximal effect.

SMILES | activity change, negative = inhibition | Potency
Clc1ccc(CN2CCCCCC2)cc1 | inactive: -0.16% | 
Cc1ccc(S(=O)(=O)NCC(C)NS(C)(=O)=O)cc1 (centres undefined) | inconclusive: -21.6% | 
CCC(=O)NC(=Nc1nc2ccccc2s1)NC(=O)CC |  | inconclusive: 20.6 µM [falling, partial curve]
CCc1nc(NCC2CCCO2)c(C#N)c2c1COC(C)(C)C2 (centres undefined) | inconclusive: 7.14% | 
COC(=O)c1ccccc1NC(=O)CSc1nnc(CNS(=O)(=O)c2ccc(C)cc2)n1C |  | inconclusive: 29.1 µM [falling, single point]
COc1ccc(OCC(O)CN2C(=O)c3ccccc3S2(=O)=O)cc1 (centres undefined) | inconclusive: 7.37% | 
COc1ccc(Cl)cc1S(=O)(=O)n1c([N+](=O)[O-])cnc1C | inactive: 3.31% | 
Cc1ccc2nsnc2c1NC(=O)c1ccc([N+](=O)[O-])o1 |  | inconclusive: 28.2 µM [falling, single point]
O=C(Nc1ccc(Oc2cccnc2)cc1)C1CCCCN1Cc1ccc(CO)o1 (centres undefined) | inconclusive: 0.257% | 
O/N=C(/CCc1ccccc1)C1(O)CCCCC1 |  | inconclusive: 1.64 µM [rising, partial curve]
CCOc1cc(Br)cc(C(c2c(C(=O)O)[nH]c3ccccc23)c2c(C(=O)O)[nH]c3ccccc23)c1O | inactive: 0.344% | 
C=C[C@@H]1c2ccccc2N(S(=O)(=O)c2ccc(C)cc2)[C@H](c2ccccc2)C1(C#N)C#N | inactive: 4.6% | 
CCOc1ccccc1NC(=O)C1CC(=O)n2ncnc2N1 (centres undefined) | inconclusive: 16.2% | 
O=C(c1ccccc1F)N1CCN(c2ccc([N+](=O)[O-])c3cccnc23)CC1 | inactive: -6.76% | 
COc1ccc(C2=NOC3(CC(=O)N(c4ccc(C)cc4)C3=O)C2)cc1 (centres undefined) | inconclusive: 21.8% | 
Cn1nc(NC(=O)C(F)(F)F)c2ncc(-c3ccc(Cl)cc3)nc21 | inconclusive: -4.01% | 
CCc1nc(Nc2cccc(O)c2)c2oc3ccccc3c2n1 |  | inconclusive: 35.5 µM [falling, single point]
CC(=O)Nc1ccc(S(=O)(=O)NCCSCc2ccccc2Cl)cc1 | inactive: -4.04% | 
O=C(NNC1=NCCC1)c1ccc(Br)cc1 | inactive: -14.5% | 
Cc1ccc(C(=O)COC(=O)c2c(C)cc(=O)oc2C)cc1[N+](=O)[O-] | inconclusive: 2.74% | 
CC(C)(C)c1ccc(OCCC(=O)OCC(=O)Nc2ccc(N3CCOCC3)cc2)cc1 | inactive: 1.15% | 
C=CCn1c(SCC(=O)N2CCN(c3ccccc3)CC2)nc2c([nH]c3ccccc32)c1=O | inactive: 10.1% | 
O=C(O)c1ccc(OS(=O)(=O)c2cccc(C(F)(F)F)c2)cc1 | inactive: -5.95% | 
CCN(CCn1cccn1)C(=O)CC1C(=O)NCCN1Cc1ccc(F)cc1 (centres undefined) |  | inconclusive: 20 µM [falling, single point]

Grouped by structure: the compounds so far with a COOH group (2)
SMILES | activity change, negative = inhibition | Potency
CCOc1cc(Br)cc(C(c2c(C(=O)O)[nH]c3ccccc23)c2c(C(=O)O)[nH]c3ccccc23)c1O | inactive: 0.344% | 
O=C(O)c1ccc(OS(=O)(=O)c2cccc(C(F)(F)F)c2)cc1 | inactive: -5.95% | 
